Experimental findings from patent US20090081786A1, “Peptide sequences for modulation of protein kinase C” (priority 2006, published 2009) are described below.

Amino acid sequences for entries named in this document (tags omitted). A change or cut given only in a name is not applied to a line headed by its entry.
UniProt P08758: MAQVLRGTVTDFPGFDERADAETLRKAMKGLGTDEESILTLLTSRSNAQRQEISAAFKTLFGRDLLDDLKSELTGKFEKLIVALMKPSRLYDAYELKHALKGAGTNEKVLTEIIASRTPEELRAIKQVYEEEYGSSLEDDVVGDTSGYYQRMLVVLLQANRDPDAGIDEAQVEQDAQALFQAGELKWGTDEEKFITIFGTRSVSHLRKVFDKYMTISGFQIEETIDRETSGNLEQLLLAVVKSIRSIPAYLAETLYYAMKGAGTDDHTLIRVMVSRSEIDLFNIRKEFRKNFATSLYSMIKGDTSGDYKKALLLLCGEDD
UniProt P28867: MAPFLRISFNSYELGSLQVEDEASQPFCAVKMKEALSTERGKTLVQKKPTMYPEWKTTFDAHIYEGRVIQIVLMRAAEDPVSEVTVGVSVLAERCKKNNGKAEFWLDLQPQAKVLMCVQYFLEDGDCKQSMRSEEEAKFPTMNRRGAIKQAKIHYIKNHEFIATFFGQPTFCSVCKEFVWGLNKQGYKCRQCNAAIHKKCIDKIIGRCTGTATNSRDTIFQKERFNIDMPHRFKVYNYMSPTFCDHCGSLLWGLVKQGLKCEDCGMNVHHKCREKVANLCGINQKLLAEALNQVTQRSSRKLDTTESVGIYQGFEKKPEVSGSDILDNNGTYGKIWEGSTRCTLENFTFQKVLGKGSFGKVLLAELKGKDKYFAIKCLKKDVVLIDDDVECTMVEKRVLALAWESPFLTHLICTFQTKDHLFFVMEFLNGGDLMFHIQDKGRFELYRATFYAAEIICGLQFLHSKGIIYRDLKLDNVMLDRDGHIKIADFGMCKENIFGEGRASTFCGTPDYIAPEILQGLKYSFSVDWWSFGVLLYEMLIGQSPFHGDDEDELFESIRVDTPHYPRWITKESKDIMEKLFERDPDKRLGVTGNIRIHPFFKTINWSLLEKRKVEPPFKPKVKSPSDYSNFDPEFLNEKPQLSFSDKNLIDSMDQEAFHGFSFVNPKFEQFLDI

Results are given in words; binding and its absence hold for the method and conditions named. Some results given as binding are weak or reduced against the parent protein; the word gives no strength.

The target of this test is CFP-annexin V (Homo sapiens (Human)) (UniProt P08758). As to the kind of experiment: FRET between CFP-annexin V and YFP-δPKC in transfected CHO cells, 100 nM PMA, FIG. 4A.

Regarding YFP-δPKC (from UniProt P28867 1-674), the binding result is “binds”.
